{"source": "PubChem BioAssay AID743121 | NCATS, 2013", "screen": "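Partners whose loss is lethal together with topoisomerase I blockade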 (primary screen)", "system": "MDA-MB-231 cells, a human breast cancer line", "knock-down reagent": "single siRNA against human genes, 20 nM siRNA (0.8 pmol per well)", "time to read-out": "120 h (drug added 48 h after transfection, read 72 h later)", "conditions": "camptothecin 20 nM (about EC30) for 72 h; vehicle 0.1% DMSO in parallel plates", "detection": "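CellTiter-Glo ATP signal, scaled to control siRNA as percent viability; sensitisation given as log2 of untreated divided by camptothecin-treated viability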", "reading the numbers": "log2 vehicle/camptothecin viability: higher = stronger sensitisation to camptothecin; viability with camptothecin: higher = more viable cells", "units": "viability with camptothecin in % of control", "hit rule": "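Active genes have an RSA gene-level p-value below 0.001, computed from the ratios of their separate siRNAs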", "note": "This is an unselected part of about 26,000 reagents. 167 of them (0.63%) were called active. 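Calls are per gene from RSA p-values that are not deposited; an individual active-marked siRNA can sensitise only weakly.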 The numbers tell different reagents against one gene apart. Further read-outs or replicates are left out here."}
{"gene knocked down": "OPN4 (opsin 4)", "reagent": 1, "log2 vehicle/camptothecin viability": -0.522, "viability with camptothecin": 79.2, "outcome": "inactive"}
{"gene knocked down": "OPN4 (opsin 4)", "reagent": 2, "log2 vehicle/camptothecin viability": 0.816, "viability with camptothecin": 32.6, "outcome": "inactive"}
{"gene knocked down": "OPN4 (opsin 4)", "reagent": 3, "log2 vehicle/camptothecin viability": -0.28, "viability with camptothecin": 87.6, "outcome": "inactive"}
{"gene knocked down": "OPN4 (opsin 4)", "reagent": 4, "log2 vehicle/camptothecin viability": 0.362, "viability with camptothecin": 42.4, "outcome": "inactive"}
{"gene knocked down": "TMPRSS11B (transmembrane serine protease 11B)", "reagent": 1, "log2 vehicle/camptothecin viability": -0.511, "viability with camptothecin": 45.3, "outcome": "inactive"}
{"gene knocked down": "TMPRSS11B (transmembrane serine protease 11B)", "reagent": 2, "log2 vehicle/camptothecin viability": -0.195, "viability with camptothecin": 117, "outcome": "inactive"}
{"gene knocked down": "TMPRSS11B (transmembrane serine protease 11B)", "reagent": 3, "log2 vehicle/camptothecin viability": -0.184, "viability with camptothecin": 109, "outcome": "inactive"}
{"gene knocked down": "TMPRSS11A (transmembrane serine protease 11A)", "reagent": 1, "log2 vehicle/camptothecin viability": -0.176, "viability with camptothecin": 112, "outcome": "inactive"}
{"gene knocked down": "TMPRSS11A (transmembrane serine protease 11A)", "reagent": 2, "log2 vehicle/camptothecin viability": -0.535, "viability with camptothecin": 67.8, "outcome": "inactive"}
{"gene knocked down": "TMPRSS11A (transmembrane serine protease 11A)", "reagent": 3, "log2 vehicle/camptothecin viability": -0.0495, "viability with camptothecin": 99.5, "outcome": "inactive"}
{"gene knocked down": "ACP4 (acid phosphatase 4)", "reagent": 1, "log2 vehicle/camptothecin viability": -0.117, "viability with camptothecin": 54.7, "outcome": "inactive"}
{"gene knocked down": "ACP4 (acid phosphatase 4)", "reagent": 2, "log2 vehicle/camptothecin viability": -0.0528, "viability with camptothecin": 59, "outcome": "inactive"}
{"gene knocked down": "ACP4 (acid phosphatase 4)", "reagent": 3, "log2 vehicle/camptothecin viability": -0.0847, "viability with camptothecin": 52.2, "outcome": "inactive"}
{"gene knocked down": "ACP4 (acid phosphatase 4)", "reagent": 4, "log2 vehicle/camptothecin viability": 1.81, "viability with camptothecin": 20.5, "outcome": "inactive"}
{"gene knocked down": "ATP1A1 (ATPase Na+/K+ transporting subunit alpha 1)", "reagent": 1, "log2 vehicle/camptothecin viability": -0.348, "viability with camptothecin": 78.1, "outcome": "inactive"}
{"gene knocked down": "ATP1A1 (ATPase Na+/K+ transporting subunit alpha 1)", "reagent": 2, "log2 vehicle/camptothecin viability": -0.111, "viability with camptothecin": 109, "outcome": "inactive"}
{"gene knocked down": "ATP1A1 (ATPase Na+/K+ transporting subunit alpha 1)", "reagent": 3, "log2 vehicle/camptothecin viability": -0.325, "viability with camptothecin": 99.7, "outcome": "inactive"}
{"gene knocked down": "ATP1A1 (ATPase Na+/K+ transporting subunit alpha 1)", "reagent": 4, "log2 vehicle/camptothecin viability": -0.282, "viability with camptothecin": 96.4, "outcome": "inactive"}
{"gene knocked down": "ZBTB16 (zinc finger and BTB domain containing 16)", "reagent": 1, "log2 vehicle/camptothecin viability": -0.144, "viability with camptothecin": 88.9, "outcome": "inactive"}
{"gene knocked down": "ZBTB16 (zinc finger and BTB domain containing 16)", "reagent": 2, "log2 vehicle/camptothecin viability": -0.132, "viability with camptothecin": 109, "outcome": "inactive"}
{"gene knocked down": "ZBTB16 (zinc finger and BTB domain containing 16)", "reagent": 3, "log2 vehicle/camptothecin viability": -0.228, "viability with camptothecin": 45.3, "outcome": "inactive"}
{"gene knocked down": "ZBTB16 (zinc finger and BTB domain containing 16)", "reagent": 4, "log2 vehicle/camptothecin viability": -0.14, "viability with camptothecin": 60.8, "outcome": "inactive"}
{"gene knocked down": "KCNC4 (potassium voltage-gated channel subfamily C member 4)", "reagent": 1, "log2 vehicle/camptothecin viability": -0.355, "viability with camptothecin": 85.4, "outcome": "inactive"}
{"gene knocked down": "KCNC4 (potassium voltage-gated channel subfamily C member 4)", "reagent": 2, "log2 vehicle/camptothecin viability": 0.00219, "viability with camptothecin": 60.8, "outcome": "inactive"}
{"gene knocked down": "KCNC4 (potassium voltage-gated channel subfamily C member 4)", "reagent": 3, "log2 vehicle/camptothecin viability": 0.0419, "viability with camptothecin": 18.9, "outcome": "inactive"}

Reprinted from the listing (3 entries):
{"gene knocked down": "ACP4 (acid phosphatase 4)", "reagent": 1, "log2 vehicle/camptothecin viability": -0.117, "viability with camptothecin": 54.7, "outcome": "inactive"}
{"gene knocked down": "ACP4 (acid phosphatase 4)", "reagent": 2, "log2 vehicle/camptothecin viability": -0.0528, "viability with camptothecin": 59, "outcome": "inactive"}
{"gene knocked down": "ACP4 (acid phosphatase 4)", "reagent": 3, "log2 vehicle/camptothecin viability": -0.0847, "viability with camptothecin": 52.2, "outcome": "inactive"}
